Common to all, as to assay: two-hybrid; Matchmaker Two-Hybrid System (Clontech); pGBKT7 (BD) and pGADT7 (AD) fusions cotransformed in yeast; SD/-Trp/-Leu/-His/-Ade/X-α-gal (40 μg/ml) with 5 mM 3-AT; grade by the number of clones
The target of test [1] is T1, AGAMOUS-LIKE 24 (AGL24) of Arabidopsis (Arabidopsis) (UniProt O82794).
T1 sequence: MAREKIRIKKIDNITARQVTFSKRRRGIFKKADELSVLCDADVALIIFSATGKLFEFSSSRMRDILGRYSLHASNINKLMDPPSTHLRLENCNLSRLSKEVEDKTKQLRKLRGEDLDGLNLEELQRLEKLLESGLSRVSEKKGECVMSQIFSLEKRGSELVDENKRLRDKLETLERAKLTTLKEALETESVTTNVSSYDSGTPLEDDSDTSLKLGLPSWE

By UniProt entry, the sequences of proteins in these tests, tags left out.
UniProt O64645: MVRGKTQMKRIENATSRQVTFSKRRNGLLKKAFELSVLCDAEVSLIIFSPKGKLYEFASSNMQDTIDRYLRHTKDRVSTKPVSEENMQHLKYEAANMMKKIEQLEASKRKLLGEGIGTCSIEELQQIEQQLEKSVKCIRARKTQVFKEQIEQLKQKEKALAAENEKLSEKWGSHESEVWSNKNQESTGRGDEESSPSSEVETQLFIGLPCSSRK

The target of test [2] is …3 (SEP3) of Arabidopsis (Arabidopsis) (UniProt O22456).
In test [3] the target is SUPPRESSOR OF OVEREXPRESSION OF CONSTANS 1 (SOC1) of Arabidopsis (Arabidopsis) (UniProt O64645).
Test [4] addresses PtAGL24 (Poncirus trifoliata (trifoliate orange)).

Results are given in words; binding and its absence hold for the method and conditions named. Binding can be weak; no strength is given.

In the case of “APETALA1 (AP1) of Arabidopsis, truncated version without the trans-activating C-terminus (domain or fragment)”, in test [1], the binding result is given as “binds weakly”.

With FLOWERING LOCUS (FLC) of Arabidopsis, the binding entry in test [1] was “no binding”.

Turning to PtAGL24 (from UniProt A0A1I9ZJQ3), the binding result in test [1], in test [2] and in test [3] was “binds” each time.

Regarding “SUPPRESSOR OF OVEREXPRESSION OF CONSTANS 1 (SOC1) of Arabidopsis (from UniProt O64645 1-214)”, the binding result in test [4] is listed as “binds”.

As for “…3 (SEP3) of Arabidopsis (from UniProt O22456-1 1-251)”, in test [4], the binding entry is listed as “binds”.

(Values after publication PMC4901042.)
